# According to PubChem BioAssay AID493014 (National Center for Advancing Translational Sciences (NCATS), 2011):
# The other results are listed elsewhere or left out. The main result of the screen is listed elsewhere. These columns were measured beside it and carry no call. The list favours compounds with an active or inconclusive main result. The note in brackets gives the kind of curve behind each potency; many fits are weak.
# Experiment: qHTS Assay to Find Inhibitors of Chronic Active B-Cell Receptor Signaling
# Settings: ABC-DLBCL IkBa-CBG/CBR reporter, luminescence ratio (green luciferase fused to IkBa over red control in TMD8 lymphoma cells), 4 h
# How it was run: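 Compounds up to 46 uM were incubated four hours with TMD8 cells whose green CBG68 luciferase is fused to IkappaBalpha; red CBR luminescence normalised the signal, and concentration-effect curves were fitted to fusion, red and ratio data.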
# [1] = measured here: CBR red luminescence, cell number
# [2] = measured here: IkBa-CBG green luminescence
SMILES,AC50 [1],AC50 [2]
NC(=O)c1sc2nc3c(c(-c4ccco4)c2c1N)CCC3,"0.00651 µM [falling, full curve, poor fit]",
CN(Cc1ccccc1)c1nc(CN2CCOCC2)nc2scc(-c3ccccc3)c12,"3.66 µM [rising, single point]",
N#C/C(=C(/O)CN1CCCC1)c1nc(-c2ccccc2)cs1,"8.91 µM [falling, partial curve, poor fit]",
COc1ccc(Cn2c(C)cc3c(c2=O)C(c2cccs2)C(C#N)=C(N)O3)cc1OC (stereo not given),"7.31 µM [rising, partial curve, poor fit]",
O=C(CN1CCCCCC1)Nc1c(Cl)cc(Cl)cc1Cl,"15.8 µM [rising, single point]",
O=C(NN=Cc1ccccc1OC(F)F)c1ccc(NS(=O)(=O)c2cccs2)cc1,"20.6 µM [falling, partial curve, poor fit]",
COCCN1CCn2c(nc3cc(NC(=O)Cn4nc(C)c5ccccc5c4=O)ccc32)C1,"1 µM [rising, partial curve, poor fit]",
NC(=O)CC(NC(=O)Cc1cccc2ccccc12)c1ccc(NCC2CC2)c([N+](=O)[O-])c1 (stereo not given),"35.5 µM [rising, single point]",
O=C(Cc1cccs1)N=Nc1c(O)[nH]c2ccccc12,"12.6 µM [falling, partial curve, poor fit]",
CCOc1cccc(CC(=O)NCc2ccc3c(c2)CCN3C(C)=O)c1OCC,"0.398 µM [rising, full curve, poor fit]",
CN(CCC#N)C(=O)COC(=O)c1ccccc1C(=O)c1ccc(Cl)c([N+](=O)[O-])c1,"5.01 µM [falling, full curve]",
CS(=O)(=O)c1ccc2nc(NC(=O)CCN3C(=O)c4ccccc4C3=O)sc2c1,"22.4 µM [rising, partial curve, poor fit]",
O=C1CS/C(=N/N=C2CCCC2)N1,"0.501 µM [rising, full curve, poor fit]",
Fc1ccc(Cn2nnc3ccccc32)cc1,"5.62 µM [falling, single point]",
CCCN1CCC(=NNc2ccc(C(=O)O)cc2)CC1,"0.316 µM [falling, full curve]",
COc1cccc(OC(=O)CSc2nnc(-c3ccccc3Br)o2)c1,"29.1 µM [falling, single point]",
CC1=C(C(=O)Nc2ccccc2)C(c2ccco2)C(C#N)=C(SCC(=O)Nc2cccc(C)c2C)N1 (stereo not given),"4.11 µM [falling, full curve, poor fit]",
O=C(NCc1cc([N+](=O)[O-])ccc1O)c1cccnc1Sc1ccc(Cl)cc1,"0.316 µM [rising, full curve, poor fit]",
O=C(NCCS(=O)(=O)NCCc1ccccc1)c1ccc2c(c1)OCO2,"32.6 µM [falling, single point]",
COc1ccccc1CCn1c(N)c(C#N)c2nc3ccccc3nc21,"10.3 µM [falling, partial curve]",
CC1(C)CC(=O)C(C=Nc2ccc3[nH]ncc3c2)=C(O)C1,"8.2 µM [falling, partial curve]","23.1 µM [falling, partial curve, poor fit]"

SMILES,AC50 [1],AC50 [2]
O=C(NCCCn1ccnc1)c1cccc(S(=O)(=O)Nc2ccccc2F)c1,"3.55 µM [rising, single point]",
C=CCOC(=O)C(C#N)c1nc2ccccc2nc1N1CCN(Cc2ccc3c(c2)OCO3)CC1 (stereo not given),"11.6 µM [rising, partial curve, poor fit]",
CCc1ccc(Sc2cc(C(=O)O)c3ccccc3n2)cc1,"1.58 µM [rising, partial curve, poor fit]",
CNC(C)C#Cc1c(-c2cc(OC)c(OC)c(OC)c2)noc1C (stereo not given),"7.94 µM [falling, partial curve, poor fit]",
Cc1ccsc1C(=O)NNC(=O)C1CC=CCC1C(=O)O (stereo not given),"5.8 µM [falling, partial curve]",
CCN1CCC2(CC1)Oc1c(OC)cccc1C1CC(c3cccnc3)=NN12 (stereo not given),"15.8 µM [rising, single point]",
Cc1occc1C(=O)NNC(=O)COc1ccc(Br)cc1Br,"18.4 µM [rising, partial curve]",
COc1cc(C(=O)NCCCCCCNC(=O)c2cc(OC)c(OC)c(OC)c2)cc(OC)c1OC,"0.562 µM [rising, full curve, poor fit]",
CCCCc1c(O)nc2sc3cc(OC)ccc3n2c1=O,"0.517 µM [falling, full curve, poor fit]",
CCc1nnc(NC(=O)COc2ccc([N+](=O)[O-])cc2)s1,"12.6 µM [rising, partial curve]",
O=[N+]([O-])c1ccc(-c2nc(Nc3cccc(O)c3)c3ccccc3n2)cc1,"10 µM [falling, partial curve, poor fit]",
Cc1ccc(C2=Nc3c(ccc4ccccc34)C(c3ccncc3)=NN2)cc1,"35.5 µM [falling, single point]",
CCC(=O)Nc1cccc(-c2nc3ccccc3c(=O)o2)c1,"10 µM [falling, partial curve]",
O=C(Nc1ccccc1)C1=C[C@@H](c2csc3ccccc23)C[C@@H](OCc2ccc(CO)cc2)O1,"15.8 µM [falling, single point]",
COC(=O)c1cc(NC(=O)COC(=O)C2CCC2)cc(C(=O)OC)c1,"3.66 µM [falling, partial curve]",
COc1ccc(CCNC(=S)NC(=O)c2ccccc2)cc1OC,"35.5 µM [falling, single point]",
CCOC(=O)c1cnc(-c2ccccc2O)nc1Cl,"2.51 µM [falling, full curve, poor fit]",
CCc1ccc2c(c1)/C(=C/C(=O)c1cccs1)C(=O)N2,"25.1 µM [falling, partial curve, poor fit]",
O=C(NNC(=O)C1CC=CCC1)c1ccccc1Cl (stereo not given),"15.8 µM [falling, single point]",
Cc1onc(-c2c(F)cccc2Cl)c1C(=O)ONC(=O)c1ccco1,"2.24 µM [rising, full curve]",
Cc1ccc(NC(=S)N/N=C/c2ccc(Cl)c([N+](=O)[O-])c2)cc1,"20.6 µM [falling, partial curve, poor fit]",

SMILES,AC50 [1],AC50 [2]
Cn1ncc(Cl)c1C(=O)NCc1ccco1,"20 µM [falling, single point]",
O=C(CCCc1nc2ccccc2s1)Nc1ccccc1,"10 µM [rising, partial curve, poor fit]",
CSc1ccccc1NC(=O)CN(c1cc(C)cc(C)c1)S(C)(=O)=O,"9.2 µM [falling, partial curve, poor fit]",
C/C(=N\NC(=O)c1ccn(C)n1)c1ccc(NC(=O)C2CCCC2)cc1,"18.4 µM [falling, partial curve]",
Cc1csc(SCC(=O)Nc2cccc3nsnc23)n1,"13 µM [falling, partial curve]",
Cc1nnsc1C(=O)N(Cc1ccccc1)C(C)C,"15.8 µM [rising, partial curve, poor fit]",
O=C(CN(c1ccccc1)S(=O)(=O)c1ccccc1[N+](=O)[O-])Nc1cccnc1,"3.16 µM [falling, partial curve, poor fit]",
C=CCNC(=O)c1ccccc1NS(=O)(=O)c1ccc(SC)cc1,"6.51 µM [rising, single point]",
COC(=O)c1nn(-c2ccc(-c3ccccc3)cc2)cc1O,"10 µM [falling, single point]",
COc1ccc(-c2cc(C(=O)Nc3cc(Br)ccc3O)no2)cc1,"0.708 µM [falling, partial curve, poor fit]",
CC1CCCCN1Cc1c(O)ccc2c(=O)c(-c3nc4ccccc4s3)c(N)oc12 (stereo not given),"13 µM [falling, partial curve]",
COC(=O)N/N=C\c1ccccc1OC/C=C/c1ccccc1,"0.355 µM [rising, full curve, poor fit]",
O=c1nc(Nc2ccc(Br)cc2)sc2ccc([N+](=O)[O-])cc12,"10 µM [falling, partial curve, poor fit]",
O=C(Nc1ccccc1C(F)(F)F)NC1CCCCC1,"16.4 µM [rising, partial curve, poor fit]",
C=CCOC(=O)c1[nH]c2c(c1C)C(=O)CC(c1ccco1)C2 (stereo not given),"0.58 µM [rising, full curve]",
CC1CCCCN1S(=O)(=O)c1ccc(N(C(=O)c2cnccn2)C(C(=O)NC2CCCCC2)c2cccs2)cc1 (stereo not given),"20.6 µM [falling, partial curve, poor fit]",
COc1ccc(C(=O)N2CCC(n3c(C)nc4cc(F)ccc43)CC2)cc1OC,"12.6 µM [rising, partial curve, poor fit]",
O=C(NC1=NCCS1)c1ccc(Cl)s1,"8.2 µM [rising, partial curve, poor fit]",
CCc1ccc(/C=C2\SC(=S)N(CCC(=O)NC3=NCCS3)C2=O)cc1,"4.47 µM [falling, full curve, poor fit]","35.5 µM [falling, partial curve, poor fit]"
Cc1cc(C)n(-c2ccc(C(=O)OCC(=O)Nc3ccccc3[N+](=O)[O-])cc2)n1,"2.59 µM [rising, partial curve, poor fit]",
O=C(N[C@@H](Cc1ccccc1)c1nc2ccccc2[nH]1)c1cc([N+](=O)[O-])ccc1Cl,"23.1 µM [falling, single point]",

# 3 of the compounds above, as tab-separated lines.
SMILES	AC50 [1]	AC50 [2]
Cc1nnsc1C(=O)N(Cc1ccccc1)C(C)C	15.8 µM [rising, partial curve, poor fit]	
C=CCOC(=O)c1[nH]c2c(c1C)C(=O)CC(c1ccco1)C2 (stereo not given)	0.58 µM [rising, full curve]	
CCc1ccc(/C=C2\SC(=S)N(CCC(=O)NC3=NCCS3)C2=O)cc1	4.47 µM [falling, full curve, poor fit]	35.5 µM [falling, partial curve, poor fit]
